# From PubChem BioAssay AID445 (National Center for Advancing Translational Sciences (NCATS), 2006)
# Some of the results follow. Further columns of the screen follow, without active or inactive calls. Compounds called inactive in the main read-out are mostly missing here. The note in brackets gives the kind of curve behind each potency; many fits are weak.
# Assay: IkB Signaling
# Conditions: ABC-DLBCL IkBa-CBG/CBR dual luciferase ratio (green luciferase fused to IkBa over red control in OCI-Ly3 lymphoma cells), 4 h
# Outline: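 In this assay, an IκBα–CBG68 fusion accumulates when IKK-driven degradation is blocked; native CBR normalizes for cell number. OCI-Ly3 cells were treated 4 h with compound and doxycycline, then green and red light read after Chroma-Glo addition.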
# [1] = measured here: control luc red channel unless noted
# [2] = measured here: IkB-luc green channel
# [3] = measured here: control luc red channel
smiles,measurement,setting,value
O=c1cc(-c2ccc(Cl)cc2)[nH][nH]1,AC50,[1],"3.98 µM [falling, partial curve]"
OC(c1ccccc1)c1nc2ccccc2n1Cc1c(F)cccc1Cl (stereo not drawn),AC50,[1],"25.1 µM [falling, single point]"
COc1ccccc1C1C(C(=O)Nc2ccccc2)=C(C)Nc2nc(-c3ccccc3)nn21 (stereo not drawn),AC50,[1],"20 µM [falling, partial curve]"
CC(=O)N1CCc2cc(S(=O)(=O)NC(Cc3ccccc3)C(=O)Nc3cc(C)cc(C)c3)ccc21 (stereo not drawn),AC50,[1],"10 µM [falling, partial curve]"
CC1CCCCN1CCCNC(=O)Cn1ncc2c3ccccc3n(Cc3ccccc3)c2c1=O (stereo not drawn),AC50,[1],"7.94 µM [falling, partial curve]"
COc1ccccc1N1CCN(Cc2nc(-c3cc(OC)c(OC)c(OC)c3)no2)CC1,AC50,[1],"20 µM [falling, single point]"
Cc1ccc(Cl)cc1N1CCN(C(=O)CCc2nnc3n(C)c(=O)c4ccccc4n23)CC1,AC50,[1],"20 µM [falling, partial curve]"
COc1ccc(CCN2C(=O)CN(C3CCCCCC3)C(=O)C2c2ccc(Cl)cc2)cc1OC (stereo not drawn),AC50,[1],"12.6 µM [falling, partial curve]"
COc1ccccc1NC(=O)CSc1nnc(Cc2cccn2C)n1-c1ccc(F)cc1,AC50,[1],"15.8 µM [falling, partial curve]"
O=C(Cn1ncc2c3ccccc3n(Cc3ccccc3)c2c1=O)NCCCN1CCCCC1,AC50,[1],"20 µM [falling, single point]"
CC1CN(C(=O)N2CCC(C(=O)NCc3ccco3)CC2)c2ccccc2O1 (stereo not drawn),AC50,[1],"12.6 µM [falling, partial curve]"
CC1CCN(c2nc3ccccc3nc2C(F)(F)F)CC1,AC50,[1],"7.94 µM [rising, partial curve]"
Cc1ccc2ncc(C(=O)c3ccc(C)c(C)c3)c(S(=O)(=O)c3ccccc3)c2c1,AC50,[1],"2.51 µM [falling, full curve]"
COc1ccc(Cl)cc1C(=O)CSc1nc(N)cc(N)n1,AC50,[1],"12.6 µM [falling, partial curve]"
Cc1cccc(CN2C(=O)c3ccccc3Sc3ccc(C(=O)NCCCN4CCOCC4)cc32)c1,AC50,[1],"15.8 µM [falling, partial curve]"
Cc1[nH]c2ccccc2c1Cc1nnc(SCC(=O)NCc2ccco2)o1,AC50,[1],"15.8 µM [rising, partial curve] [measured here: IkB-luc green channel]"
Cc1ccc(-c2nc(CS(=O)(=O)CC(=O)N3CCN(c4ccccc4)CC3)c(C)o2)cc1,AC50,[1],"20 µM [falling, partial curve]"
COc1cc(Br)cc2cc(S(=O)(=O)c3ccccc3)c(=O)oc12,AC50,[1],"3.98 µM [falling, full curve]"
CCc1cccc(C)c1Nc1c(-c2ccc(N(C)C)cc2)nc2cnccn12,AC50,[1],"20 µM [falling, partial curve]"
Cc1ccc(-n2nc(C)c3c(C)c(CCC(=O)NCc4ccc(Cl)cc4)c(C)nc32)cc1,AC50,[1],"10 µM [falling, partial curve]"
Cc1cc(NC(=O)c2cc(-c3ccccc3)on2)n(-c2ccccc2)n1,AC50,[1],"15.8 µM [falling, partial curve]"
CCc1ccc(C(=O)c2cn(CC(=O)Nc3cc(OC)cc(OC)c3)c3ccc(CC)cc3c2=O)cc1,AC50,[1],"39.8 µM [falling, partial curve]"
COc1ccc(-c2cc(C(=O)Oc3ccc(C#N)cc3)no2)cc1,AC50,[1],"0.00631 µM [rising, full curve, poor fit]"
Cc1ccsc1-c1nc(CSCC(=O)NCc2ccc3c(c2)OCO3)c(C)o1,AC50,[1],"25.1 µM [falling, single point]"
O=S1(=O)c2ccccc2N(Cc2ccc(F)cc2)c2ccccc21,AC50,[1],"12.6 µM [falling, partial curve]"
O=C(Nc1cc(Cl)cc(Cl)c1)c1cc(S(=O)(=O)N2CCc3ccccc3C2)ccc1F,AC50,[1],"20 µM [falling, partial curve]"
Cn1cccc1-c1nc2ccc(NC(=O)c3ccco3)cc2[nH]1,AC50,[1],"20 µM [falling, partial curve]"
CCOC(=O)c1cccc(NC(=O)C2CCCN(c3nnc(C)c4c(C)n(-c5ccccc5)nc34)C2)c1 (stereo not drawn),AC50,[1],"12.6 µM [falling, partial curve]"
COc1ccc(OC)c(C2C(C(=O)Nc3ccccc3OC)=C(C)Nc3c(C(=O)Nc4ccc(F)cc4)cnn32)c1 (stereo not drawn),AC50,[1],"15.8 µM [falling, partial curve]"
CC(Nc1ccc(Br)cn1)c1cc(Cl)ccc1O (stereo not drawn),AC50,[1],"25.1 µM [falling, partial curve]"
O=C(CSc1nnc(-c2cnccn2)n1Cc1ccco1)c1ccc2ccccc2c1,AC50,[1],"15.8 µM [falling, partial curve]"
COc1ccc(NS(=O)(=O)c2ccc3oc(Nc4ccc5c(c4)OCCO5)nc3c2)cc1,AC50,[1],"12.6 µM [falling, partial curve]"
O=C(CSC1=NCCN1)NC12CC3CC(CC(C3)C1)C2,AC50,[1],"39.8 µM [rising, single point] [measured here: IkB-luc green channel]"
CCOC(=O)c1ccc(NS(=O)(=O)c2cc(Br)cc3c2N(C(C)=O)C(C)C3)cc1 (stereo not drawn),AC50,[1],"6.31 µM [falling, partial curve]"
CCc1nnc(NC(=O)C2Cc3ccccc3CN2S(=O)(=O)c2cccs2)s1 (stereo not drawn),AC50,[1],"39.8 µM [falling, single point]"
COc1ccc(CNC(=O)c2cc(-c3ccc(C)c(C)c3)n[nH]2)cc1,AC50,[1],"25.1 µM [falling, partial curve]"
CCN(C(=O)c1cc(S(=O)(=O)N2CCc3ccccc32)cn1C)c1cccc(C)c1,AC50,[1],"10 µM [falling, partial curve]"
O=C(Nc1ccc(-c2nc3cccnc3s2)cc1)c1ccco1,AC50,[2],"39.8 µM [rising, single point]"
same,AC50,[3],"10 µM [falling, partial curve]"
Cc1ccc2c(=O)c(C(=O)c3ccc(F)cc3)cn(CC(=O)NCc3ccccc3Cl)c2n1,AC50,[1],"1 µM [falling, full curve, poor fit]"
Cc1ccc(Cl)cc1N1CCN(C(=O)c2cccn2-c2nnc(N3CCCC3)s2)CC1,AC50,[1],"31.6 µM [falling, single point]"
CC(C)(C)OC(=O)N1CCC(c2c(C(=O)NCc3ccc4c(c3)OCO4)cnn2-c2ccccc2Cl)CC1,AC50,[1],"15.8 µM [falling, partial curve]"
COc1ccc(C(=O)Nc2nnc(S(=O)(=O)N(CC(C)C)c3ccccc3)s2)cc1,AC50,[1],"0.631 µM [rising, full curve]"
CCc1ccc2oc(-c3cc(N)cc(C)c3O)nc2c1,AC50,[1],"1.26 µM [falling, full curve]"
Cc1ccc(Cn2c(C(=O)O)c(CNCc3cccs3)c3ccc(C)cc32)cc1,AC50,[1],"15.8 µM [falling, partial curve]"
COc1cc(-c2nnn(CC(=O)NC3CCS(=O)(=O)C3)n2)ccc1OCc1ccccc1 (stereo not drawn),AC50,[1],"0.398 µM [falling, partial curve]"
CCOC(=O)c1c(NC(=O)c2ccc(S(=O)(=O)N3CCCC(C)C3)cc2)sc2c1CCN(C(C)C)C2 (stereo not drawn),AC50,[1],"31.6 µM [falling, partial curve]"
Cc1cc(C)cc(NC(=O)C(=O)NC(C)c2ccccc2)c1 (stereo not drawn),AC50,[1],"20 µM [falling, single point]"
CC(C)c1ccc2oc(-c3cccc(NC(=O)c4ccc5c(c4)OCCO5)c3)nc2c1,AC50,[1],"0.316 µM [falling, full curve]"
Cc1ccc(-n2c(SCC(=O)Nc3cccc(F)c3)nc3c(oc4ccccc43)c2=O)cc1C,AC50,[1],"10 µM [falling, partial curve]"
O=C(O)C(F)(F)S(=O)(=O)O,AC50,[1],"39.8 µM [rising, single point] [measured here: IkB-luc green channel]"
Cc1ccc2oc3c(c(=O)c2c1)C(c1cccc(O)c1)N(Cc1ccccc1Cl)C3=O (stereo not drawn),AC50,[1],"20 µM [falling, partial curve]"
CC(C)Sc1ncc(Cl)c(C(=O)N(Cc2ccc(F)cc2)C2CCS(=O)(=O)C2)n1 (stereo not drawn),AC50,[1],"12.6 µM [falling, partial curve]"
CCOC(=O)C(C(C)=O)c1c(Br)c(O)c(O)c2c(C(=O)c3ccc(C)cc3)coc12 (stereo not drawn),AC50,[1],"2 µM [falling, full curve]"
CC1=C(C(=O)Nc2ccc(C)cc2)C(c2ccc(Cl)cc2)n2nnnc2N1 (stereo not drawn),AC50,[1],"3.16 µM [falling, partial curve]"
Cc1ccc(NC(=O)CN2C(=O)C(C)(C)c3ccccc32)cc1,AC50,[1],"0.0316 µM [falling, full curve, poor fit]"
COc1cccc(C2c3c(-c4ccccc4O)n[nH]c3C(=O)N2CCc2ccc(OC)c(OC)c2)c1 (stereo not drawn),AC50,[1],"20 µM [falling, single point]"
Cc1ccc(Sc2c(C(=O)NCc3ccccc3C)[nH]c3ccccc23)cc1,AC50,[1],"20 µM [falling, single point]"
COc1cc(NC(=O)c2cnc3c(-c4ccc(F)cc4)c(C)nn3c2C)cc(OC)c1,AC50,[1],"31.6 µM [falling, single point]"
CC1=C(/C=C/C(C)=C/C=C/C(C)=C/C=O)C(C)(C)CCC1,AC50,[2],"0.02 µM [rising, full curve, poor fit]"
same,AC50,[3],"0.01 µM [rising, full curve]"
C/C=C/Cn1c(SCCCc2ccccc2)nc2c1c(=O)[nH]c(=O)n2C,AC50,[2],"31.6 µM [falling, partial curve]"
same,AC50,[3],"15.8 µM [falling, partial curve]"

# 3 entries drawn at random from the list so far:
smiles,measurement,setting,value
Cc1ccc(NC(=O)CN2C(=O)C(C)(C)c3ccccc32)cc1,AC50,[1],"0.0316 µM [falling, full curve, poor fit]"
Cc1ccc2ncc(C(=O)c3ccc(C)c(C)c3)c(S(=O)(=O)c3ccccc3)c2c1,AC50,[1],"2.51 µM [falling, full curve]"
CCOC(=O)C(C(C)=O)c1c(Br)c(O)c(O)c2c(C(=O)c3ccc(C)cc3)coc12 (stereo not drawn),AC50,[1],"2 µM [falling, full curve]"
